The results in this text go back to PubChem BioAssay AID2685 (National Center for Advancing Translational Sciences (NCATS), 2010).

In general, AC50 refers to the concentration at which the activity in the assay is half-maximal. High values mean weaker potency, low ones greater potency.

The list shows a part of the results. Further columns of the screen follow, without active or inactive calls. Most of these compounds were active or inconclusive in the main read-out, so they are no random draw. The note in brackets gives the kind of curve behind each potency; many fits are weak.

A short description of this test: qHTS Assay for Lipid Storage Modulators in Drosophila S3 Cells.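 For cell number change: cells counted by Cell Tracker Red CMTPX staining in the red channel.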 The note with it: BODIPY lipid droplet fluorescence, 18-24 h; for cell number change: measured here: cell count max response, cells fed with added oleic acid. In a few lines: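 Drosophila S3 cells loaded with oleic acid (400 uM, as added) and compounds at several concentrations; lipid droplets imaged by 488-nm laser-scanning cytometry, 500–530 nm intensity and object ratio to cell channel. Percent activity normalized to 20 uM Triacsin C.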
In general terms: qHTS replaces the single test concentration by a dilution series.

The mark [1] stands for this setting: measured here: lipid fluorescence (Fed channel) AC50, cells fed with added oleic acid.
Where [2] appears, read: measured here: cell number channel AC50, cells fed with added oleic acid.

Take `Cc1ccc(OCC(=O)N2CCc3ccccc3C2)cc1`: the cell number change was -18.5%. Besides, the AC50 under setting [1] is 29.1 µM [rising, single point].
Turning to `Cc1cc(C(=O)NCc2ccc(S(N)(=O)=O)cc2)c(C)o1`, the cell number change is -4.53%. Also, the AC50 under setting [1] is 5.8 µM [falling, full curve].
Regarding `COc1ccc(N2CCN(C(=O)c3cc4c(s3)-c3ccccc3S(=O)(=O)C4)CC2)cc1`, under setting [2], the concentration at half-maximal activity (AC50) is 0.082 µM [rising, full curve, poor fit].
With `CC(C(=O)N(C)Cc1ccccc1)N1CCN(C/C=C/c2ccccc2)CC1` (stereo unspecified), the cell number change was determined as 24.7%. Besides, under setting [1], the AC50 was 7.31 µM [rising, partial curve, poor fit].
Regarding `O=C(Cc1n[nH]c(=O)c2ccccc12)NCc1ccccc1`, the cell number change was 11.1%.
In the case of `CC(=O)OCCNc1cc(SCc2ccco2)c2nonc2c1[N+](=O)[O-]`, the cell number change was -7.4%. The half-maximal activity concentration (AC50) under setting [1] was 20.6 µM [falling, single point].
`Cc1cccc(N2C(=O)CC(N3CCOCC3)C2=O)c1` (stereo unspecified): the cell number change is -37.9%. Moreover, the half-maximal activity concentration (AC50) under setting [2] was 29.1 µM [falling, single point].
For the compound `COc1cccc(NC(=S)N(CCN(C)C)C(C)c2ccncc2)c1` (stereo unspecified), the cell number change amounted to 19.5%. Under setting [1], the half-maximal activity concentration (AC50) is 11.6 µM [rising, single point].
For `CN(C)/C=N/c1cc(=O)n(C)c(=O)n1Cc1ccccc1`, the cell number change came out at 7.51%. Further, the AC50 under setting [1] is 14.6 µM [rising, single point].
For `Cc1cc2ccccc2nc1SCC(=O)N1c2ccccc2CC1C` (stereo unspecified), the cell number change is 28.2%. Further, under setting [2], the half-maximal activity concentration (AC50) is 0.651 µM [rising, partial curve, poor fit]. Besides, the AC50 under setting [1] is 2.59 µM [rising, full curve].
Consider `Cc1ccc2oc(C(=O)N3CCN(C)C[C@@H]3C(C)C)c(C)c2c1`, for which the cell number change is -3.27%.
For the compound `COC(=O)C1CCN(S(=O)(=O)c2ccc(OC)cc2)CC1`, the cell number change is -55.5%. The AC50 under setting [2] is 14.6 µM [falling, partial curve, poor fit]. In addition, the concentration at half-maximal activity (AC50) under setting [1] is 18.4 µM [falling, partial curve].
In the case of `CCOC(=O)Cn1nc(C)c(NC(=O)CCc2ccc(OC)cc2)c1C`, the cell number change was -6.46%. In addition, under setting [2], the concentration at half-maximal activity (AC50) is 0.731 µM [falling, full curve]. Besides, the concentration at half-maximal activity (AC50) under setting [1] is 4.11 µM [falling, single point].
As for `CC(C)C(NS(=O)(=O)c1cccs1)C(=O)NCc1ccc2c(c1)OCO2` (stereo unspecified), the cell number change was found to be 32.8%. Moreover, the AC50 under setting [2] is 32.6 µM [rising, single point].
With `CC1(C)Oc2ccc3ccc(=O)oc3c2[C@@H](O)[C@H]1O`, the cell number change was 14.9%. Besides, the AC50 under setting [1] is 0.00461 µM [rising, full curve, poor fit].
Regarding `CC(C)N(Cc1nc(-c2ccccc2)no1)S(=O)(=O)c1ccccc1`, the cell number change was 16.3%. Moreover, under setting [1], the AC50 is 25.9 µM [falling, single point].
`COc1ccc2nc(C)cc(SCC(=O)N/N=C/c3ccc(O)cc3O)c2c1`: the cell number change was -12.4%. In addition, the AC50 under setting [1] is 16.4 µM [falling, single point].
On to `O=C(C[n+]1cc(-c2ccc(Cl)cc2)n2c1CCCCC2)c1ccccc1`, for which the cell number change is -6.67%.
Regarding `COC(=O)c1cc(C)sc1NC(=S)N1CCN(CCc2ccccc2)CC1`, the cell number change was -11.7%. Also, the AC50 under setting [2] is 6.51 µM [falling, single point]. Also, the concentration at half-maximal activity (AC50) under setting [1] was 4.11 µM [falling, full curve, poor fit].
With `Cc1nnc(SCC(=O)N2c3ccccc3CC2C)s1` (stereo unspecified), under setting [2], the AC50 was 2.31 µM [rising, partial curve].
For the compound `C=CCOc1ccccc1CN1CCC(n2nccc2NC(=O)C2CC2)CC1`, the cell number change was -7.73%. The AC50 under setting [1] was 4.11 µM [rising, full curve].
As for `Cc1cc(Oc2ccc(C(C)(C)C)cc2)nc(N2CCOCC2)n1`, the cell number change was 25.3%.
With `CCN(CC)CCNC(C(=O)Nc1ccc([N+](=O)[O-])cc1Br)c1ccccc1` (stereo unspecified), the cell number change was -5.03%.
Take `CC(OC(=O)c1oc2ccccc2c1CSC1CCCCC1)C(=O)NC(N)=O` (stereo unspecified): the cell number change came out at 3.86%.
Regarding `Cc1ccc(S(=O)(=O)Cc2ccc(C(=O)N3CCCCC3C)cc2)cc1` (stereo unspecified), the cell number change worked out at 30.3%.
In the case of `CC(C)(C)C(=O)CSc1nnc(Nc2ccccc2)s1`, the cell number change is -35.8%. Under setting [2], the AC50 was 29.1 µM [falling, single point].
For the compound `O=c1c2cn[nH]c2nc(SCc2ccccc2F)n1-c1ccc(Br)cc1`, the cell number change amounted to 2.49%. Besides, the AC50 under setting [2] was 3.26 µM [rising, single point]. The half-maximal activity concentration (AC50) under setting [1] was 3.26 µM [rising, partial curve].
As to `CC(C)(O)[C@H](O)COc1c2occc2cc2ccc(=O)oc12`, the cell number change was 17.1%. The half-maximal activity concentration (AC50) under setting [1] is 0.366 µM [rising, full curve].
In the case of `CN(C)c1nc(N2CCOCC2)nc(N(c2ccccc2)c2ccccc2)n1`, the cell number change was -1.04%.
`Cc1cccc(/C=N/N2CCN(c3ccccc3)CC2)c1`: the cell number change worked out at 42.7%. For the same compound, the half-maximal activity concentration (AC50) under setting [2] is 20.6 µM [rising, single point].
Regarding `CNC(=O)c1c(O)c2cccc3c2n(c1=O)CCC3`, the cell number change is -14%. The AC50 under setting [1] is 0.146 µM [rising, full curve, poor fit].
Take `Cc1nn(CC(=O)NCCCN2CCCC2)c(=O)c2nn(-c3ccccc3)c(C)c12`: the cell number change was -11%.
For `CCC(CC)C(=O)Nc1cccc(C(=O)N2CCOCC2)c1`, the cell number change is -9.53%. In addition, the AC50 under setting [1] was 1.46 µM [falling, full curve].
Take `N#Cc1nc(-c2cccc3ccccc23)oc1N`: the cell number change is -23.2%.
`CNC(=O)Cn1ncc2c(C)n(Cc3ccc(C)cc3)c(C)c2c1=O`: the cell number change is -3.57%.
On to `COc1ccc(C(=O)C2CCCN(C(=O)c3cc(C)nc(C)n3)C2)cc1OC` (stereo unspecified), for which the cell number change amounted to 0.408%. Moreover, the concentration at half-maximal activity (AC50) under setting [1] is 16.4 µM [rising, single point].
In the case of `COc1ccc(-c2cc(C(=O)N3CCN(c4ncccn4)CC3)c3ccccc3n2)cc1OC`, the cell number change was -20.8%.
With `CC(Sc1nnc(Cc2cccs2)n1C1CCCCC1)C(=O)N1CCc2ccccc21` (stereo unspecified), the AC50 under setting [2] is 1.46 µM [rising, partial curve].
With `O=C(NCc1cccnc1)c1cc2nc(-c3ccc4c(c3)OCO4)cc(C(F)(F)F)n2n1`, the cell number change was 22.3%. Further, the AC50 under setting [1] is 0.00461 µM [rising, full curve, poor fit].
Regarding `Nn1c(COc2cccc(Br)c2)nnc1SCC(=O)NCC1CCCO1` (stereo unspecified), the cell number change was -3.63%. In addition, the half-maximal activity concentration (AC50) under setting [1] was 6.51 µM [rising, single point].
Regarding `CCC1C(=O)N=C(SCC(=O)Nc2ccc(S(N)(=O)=O)cc2)NC1=O` (stereo unspecified), the concentration at half-maximal activity (AC50) under setting [1] is 0.103 µM [falling, full curve, poor fit].
Consider `O=C(Nc1cc(=O)[nH]c2ncnn12)c1ccco1`, for which the cell number change was -1.81%. In addition, the half-maximal activity concentration (AC50) under setting [1] was 1.64 µM [falling, partial curve, poor fit].
For the compound `NC(=O)c1ccsc1NC(=O)COC(=O)Cc1cccc2ccccc12`, the cell number change was -4.69%. The AC50 under setting [2] is 0.411 µM [rising, full curve, poor fit]. Further, the AC50 under setting [1] is 10.3 µM [falling, partial curve].
